# Assay results reported in the supplement of paper PMC8732350.
# Where “and” joins values, the source holds several entries; their conditions need not be identical. Identical values can stand only once. Counter-ions that a name gives are not always drawn. ± gives the standard deviation of the averaged measurements. The list shows a part of the results. Repeats in this data set agree poorly, so a single value says little.
# Test system: A549
# Test: surface PD-L1 immunofluorescence intensity relative to IFN-gamma-only control (ratio); higher = more PD-L1 expression
# Conditions: 10 µM; exposure time 24 h; IFN-gamma 100 ng/mL
row,SMILES,surface PD-L1 immunofluorescence intensity
1,c1ccc(-c2nn3c(c2-c2ccnc4cc(OCCN5CCOCC5)ccc24)CCC3)nc1,0.982
2,O=C1O[C@H]([C@@H](O)CO)C(O)=C1O [Ascorbic acid],1.13
3,Clc1ccc(C(c2ccccc2Cl)C(Cl)Cl)cc1 (stereo not given) [Mitotane],1.13
4,Clc1ccc(C(c2ccccc2Cl)C(Cl)Cl)cc1 (stereo not given) [Mitotane (Lysodren)],0.91
5,C[C@@H]1CC[C@@]2(OC1)O[C@H]1C[C@H]3[C@@H]4CC=C5C[C@@H](O)CC[C@]5(C)[C@H]4CC[C@]3(C)[C@H]1[C@@H]2C [Diosgenin],0.992
6,O=C1Nc2ccc(Cl)cc2[C@@](C#CC2CC2)(C(F)(F)F)O1 [Efavirenz],1.08
7,c1ccc2sc(N3CCN(Cc4ccc5c(c4)OCO5)CC3)nc2c1 [2-[1-(4-Piperonyl)piperazinyl]benzothiazole],1.18
8,N#Cc1ccc(NC(=O)Nc2ccccc2Br)c2n[nH]nc12,0.963
9,OCCN1CCN(CC/C=C2/c3ccccc3Sc3ccc(Cl)cc32)CC1 [Zuclopenthixol dihydrochloride],0.997
10,C=CCN1CCc2cc(O)c(O)cc2C(c2ccccc2)C1 (stereo not given),1.01
11,O=C(NCCCCCCNC(=O)ON=C1CCCCC1)ON=C1CCCCC1,1.01
12,CC(C)[C@H](O)C(=O)N[C@@H](C)C(=O)N[C@@H]1C(=O)N(C)CCc2ccccc21,1.06
13,NS(=O)(=O)c1nn2cc(-c3ccccc3)nc2s1,0.959
14,CCc1cc(Cl)c(OC)c(C(=O)NC[C@@H]2CCCN2CC)c1O [Eticlopride hydrochloride],0.929
15,CN(C)CCOC(=O)C(c1ccccc1)C1(O)CCCC1 (stereo not given) [Cyclopentolate hydrochloride],1.03
16,Nc1ccc(/N=N/c2ccccc2)c(N)n1 [Phenazopyridine hydrochloride],0.974
17,CCC(=O)O[C@]1(C(=O)SCF)[C@H](C)C[C@H]2[C@@H]3C[C@H](F)C4=CC(=O)C=C[C@]4(C)[C@@]3(F)[C@@H](O)C[C@@]21C [Fluticasone propionate],0.805 ± 0.015
18,CCCNC(C)(C)COC(=O)c1ccccc1 [Meprylcaine hydrochloride],0.978
19,C[N+](C)(CCOc1ccccc1)Cc1ccccc1.O=C([O-])c1cc2ccccc2cc1O [Bephenium hydroxynaphthoate],0.934
20,CC(NCCc1ccc(O)cc1)C(O)c1ccc(O)cc1 (stereo not given) [Ritodrine hydrochloride],1.05
21,CCC1(C)CC(=O)NC1=O (stereo not given) [Ethosuximide],0.906
22,NC1CCN(c2c(F)cc3c(=O)c(C(=O)O)cn(C4CC4)c3c2Cl)C1 (stereo not given) [Clinafloxacin],0.943
23,CC(C)(O)CC(=O)NCCn1ccc2ncnc(Nc3ccc(Oc4cccc(C(F)(F)F)c4)c(Cl)c3)c21,0.957 ± 0.012
24,C[C@H](Nc1ncnc2nc[nH]c12)c1cc2cccc(Cl)c2c(=O)n1-c1ccccc1,0.982
25,"C[C@H](Nc1ncnc2nc[nH]c12)c1cc2cccc(Cl)c2c(=O)n1-c1ccccc1 [Duvelisib (IPI-145, INK1197)]",0.969
26,CC(C)c1cnn2c(NCc3ccccc3)cc(NCCCCCCN)nc12,1
27,CCc1nn(CCCN2CCN(c3cccc(Cl)c3)CC2)c(=O)n1CCOc1ccccc1 [Nefazodone HCl],0.941

row,SMILES,surface PD-L1 immunofluorescence intensity
1,CCc1nn(CCCN2CCN(c3cccc(Cl)c3)CC2)c(=O)n1CCOc1ccccc1 [Nefazodone hydrochloride],1.03
2,O=S(=O)(c1cccc2cnccc12)N1CCCNCC1 [Fasudil HCl (HA-1077)],0.924
3,O=S(=O)(c1cccc2cnccc12)N1CCCNCC1 [Fasudil hydrochloride],1.02
4,CCCCS(=N)(=O)CCC(N)C(=O)O (stereo not given) [Buthionine sulfoximine],0.901
5,Cc1ccc(C(=O)c2cc(/C=C/C(=O)NO)n(C)c2)cc1,1.12
6,CCNC1(C(N)=O)CCN(c2ncnc3c2nc(-c2ccccc2Cl)n3-c2ccc(Cl)cc2)CC1,1.06
7,CCC(C)(C)C(=O)O[C@H]1C[C@@H](C)C=C2C=C[C@H](C)[C@H](CC[C@@H]3C[C@@H](O)CC(=O)O3)[C@H]21 [Simvastatin],1.07 ± 0.11
8,CCC(C)(C)C(=O)O[C@H]1C[C@@H](C)C=C2C=C[C@H](C)[C@H](CC[C@@H]3C[C@@H](O)CC(=O)O3)[C@H]21 [Simvastatin (Zocor)],1.11
9,CC(=O)Oc1ccc(C(c2ccc(OC(C)=O)cc2)c2ccccn2)cc1 [Bisacodyl],1.06
10,CCOC(=O)CC(=O)N1CCSC1COc1ccccc1OC (stereo not given) [Moguisteine],1.01
11,N#CC[C@H](C1CCCC1)n1cc(-c2ncnc3[nH]ccc23)cn1,0.779
12,COc1cc(CNC(=O)CCCCCCC(C)C)ccc1O [Dihydrocapsaicin],0.999
13,CCCc1nn(C)c2c(=O)[nH]c(-c3cc(S(=O)(=O)N4CCN(C)CC4)ccc3OCC)nc12 [Sildenafil],1.12
14,CN(C[C@@H]1COCCO1)S(=O)(=O)Nc1ccc2ccc3ncc(-c4cnn(C)c4)cc3c(=O)c2c1,0.917
15,CN(C)CCc1c[nH]c2ccc(CS(=O)(=O)N3CCCC3)cc12 [Almotriptan malate (Axert)],1.18
16,Cn1nc(C(C)(C)C)cc1C(=O)N[C@@H](Cc1cccc(Cl)c1)C(=O)NCC#N [Cathepsin Inhibitor 1],0.942
17,CC1(COc2ccc(CC3SC(=O)NC3=O)cc2)CCCCC1 (stereo not given) [Ciglitazone],1.04
18,CC(C)SC(=N)N [S-Isopropylisothiourea hydrobromide],0.96
19,O=C(Nc1ccccc1)N1CCN(c2nc(-c3ccccc3)ns2)CC1,1
20,O=C(O)CCC(=O)c1ccc(-c2ccccc2)cc1 [Fenbufen],0.994
21,CCS(=O)(=O)N(C)[C@H]1c2cc(C#N)ccc2OC(C)(C)[C@@H]1O (racemic) [Chromanol 293B],1.01
22,CN1CCN2c3ccccc3Cc3ccccc3C2C1 (stereo not given) [Mianserin hydrochloride],1.02
23,CN1CCN2c3ccccc3Cc3ccccc3C2C1 (stereo not given) [Mianserine hydrochloride],0.966
24,CCCCCCCCOc1ccccc1C(=O)Nc1ccc(C(=O)OCC[N+](C)(CC)CC)cc1 [Otilonium Bromide],1.01
25,N[C@@H](Cc1ccc(O)c(O)c1)C(=O)O [Levodopa],0.89
26,CC(=O)N(C/C=C(\C)CCC=C(C)C)[C@@H](CS)C(=O)O [AGC (Acetyl-geranyl-cysteine)],1.03
27,CCOC(=O)C1=C(C)NC(C)=C(C(=O)OC)C1c1cccc(Cl)c1Cl (stereo not given) [Felodipine],1.02

row,SMILES,surface PD-L1 immunofluorescence intensity
1,C[C@H](CCC(=O)O)[C@H]1CC[C@H]2[C@@H]3C(=O)C[C@@H]4CC(=O)CC[C@]4(C)[C@H]3CC(=O)[C@]12C [Dehydrocholic acid],0.973
2,Cc1oc(S(=O)(=O)N2CCCCC2)cc1NC(=O)Nc1ccccc1,1.02
3,Cc1nc2sccn2c(=O)c1CCN1CCC(=C(c2ccc(F)cc2)c2ccc(F)cc2)CC1 [Ritanserin],1.07
4,O=C(NC(Cc1cc(=O)[nH]c2ccccc12)C(=O)O)c1ccc(Cl)cc1 (stereo not given) [Rebamipide],0.96
5,CCN1C(=O)C=CC1=O [N-Ethylmaleimide],0.928
6,CC(C)c1cc(C(C)C)c(CC(=O)NS(=O)(=O)Oc2c(C(C)C)cccc2C(C)C)c(C(C)C)c1 [Avasimibe (CI-1011)],1.08
7,CC(C)(C)NC[C@H](O)COc1cccc2c1CCCC2=O [(-) -Levobunolol hydrochloride],0.914
8,C[N+](C)(C)CCOC(N)=O [Carbachol],1.06
9,COc1ccc(-c2oc3cc(OC)ccc3c2C(=O)c2ccc(C#N)cc2)cc1,0.952
10,C=CCNc1ncnc2ccc(Br)cc12,1.01
11,OCC(CO)N[C@H]1C[C@](O)(CO)[C@@H](O)[C@H](O)[C@H]1O [Voglibose],1.05
12,Cc1ccc(Nc2nccc(N(C)c3ccc4c(C)n(C)nc4c3)n2)cc1S(N)(=O)=O [Pazopanib],1.08
13,CC(=Nc1ccccc1N)c1c(C)cc(=O)n(O)c1O,1.02
14,CCc1ccc(/C=C2/SC(=S)NC2=O)cc1,0.931
15,CCN(CC)CCNC(=O)c1cc(Br)c(N)cc1OC [Bromopride],1.06
16,CCCCC(=O)N(Cc1ccc(-c2ccccc2-c2nnn[nH]2)cc1)[C@H](C(=O)O)C(C)C [Valsartan (Diovan)],0.899
17,OC(CCN1CCCCC1)(c1ccccc1)c1ccccc1 [Pridinol methanesulfonate salt],0.962
18,CC(=O)[C@H]1[C@H](C#N)C[C@H]2[C@@H]3CC=C4C[C@@H](O)CC[C@]4(C)[C@H]3CC[C@@]21C [Pregnenolone-16(alpha)-carbonitrile],1
19,O=c1cc(N2CCOCC2)oc2c(-c3ccccc3)cccc12,0.927 and 0.888
20,O=C(O)c1cc(=O)c2ccccc2[nH]1 [Kynurenic acid],1.05
21,"Cc1c(C(=O)Nc2ccc(N3C[C@@H](C)O[C@@H](C)C3)nc2)cccc1-c1ccc(OC(F)(F)F)cc1 [LDE225 (NVP-LDE225, Erismodegib)]",1.12
22,CC(C)NNC(=O)c1ccncc1 [Iproniazide phosphate],0.955
23,Cc1ccc(Sc2cncc3sc(C(N)=O)cc23)cc1,0.943
24,CC(C)c1nc(CN(C)C(=O)N[C@@H](CCN2CCOCC2)C(=O)N[C@H](CC[C@H](Cc2ccccc2)NC(=O)OCc2cncs2)Cc2ccccc2)cs1 [Cobicistat (GS-9350)],0.994
25,C#C[C@]1(O)CC[C@H]2[C@@H]3CCC4=Cc5oncc5C[C@]4(C)[C@H]3CC[C@@]21C [Danazol],0.949
26,Cc1cccc(-c2nn3c(c2-c2ccnc4ccc(C(N)=O)cc24)CCC3)n1,1.05
